The results in this text go back to PMC3192746.

The chains behind the UniProt entries cited, without tags or fusion partners. Residues count along the entry.
UniProt Q10589, residues 1-161: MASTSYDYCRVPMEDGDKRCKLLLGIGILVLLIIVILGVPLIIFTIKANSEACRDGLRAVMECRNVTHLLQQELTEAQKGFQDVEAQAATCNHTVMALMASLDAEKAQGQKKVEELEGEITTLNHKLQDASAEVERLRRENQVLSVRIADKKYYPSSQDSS
UniProt Q77376: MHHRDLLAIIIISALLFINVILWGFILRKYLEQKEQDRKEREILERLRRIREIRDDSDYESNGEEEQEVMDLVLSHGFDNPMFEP

In this assay the target is Human tetherin with an HA tag at the N-terminus (HA-tetherin) (human) (UniProt Q10589). Briefly: co-IP; 293T cells co-transfected with HA-tetherin (500 ng) and Vpu-FLAG plasmids; lysates 24 h after transfection; IP with anti-HA MicroBeads (μMACS HA isolation kit); Western blot with anti-FLAG and anti-tetherin. On the technique in general: Immunoblotting shows a protein as a band on a membrane.

These are yes or no findings as the source states them, for the method shown. In cells and extracts the contact can be indirect.

On to “group O Vpu-FLAG (ANT70) (from UniProt Q77376 1-85)”, for which the binding entry is listed as “no binding”.
